According to PubChem BioAssay AID2685 (National Center for Advancing Translational Sciences (NCATS), 2010):
This is one part of the list. Further columns of the screen follow, without active or inactive calls. The list favours compounds with an active or inconclusive main result. Words in brackets tell the shape of the fitted curve; partial curves, single points and poor fits give uncertain potencies.

Experiment: qHTS Assay for Lipid Storage Modulators in Drosophila S3 Cells;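 on cell number change: cells counted by Cell Tracker Red CMTPX staining in the red channel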
Details: BODIPY lipid droplet fluorescence, 18-24 h; for cell number change: measured here: cell count max response, cells fed with added oleic acid
Procedure, shortened: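 Drosophila S3 cells got compounds at several concentrations plus oleic acid (400 uM solution). Laser-scanning cytometry with 488 nm excitation read lipid droplets at 500-530 nm and cells at 575-640 nm. Percent activity was relative to 20 uM Triacsin C.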

[1] = measured here: lipid fluorescence (Fed channel) AC50, cells fed with added oleic acid
[2] = measured here: cell number channel AC50, cells fed with added oleic acid

Row | SMILES | cell number change [%] | AC50 [1] | AC50 [2]
1 | COc1cc(NC(=O)CS(=O)(=O)c2ccc(C)cc2)cc(OC)c1OC | 13.3 | 29100 nM [rising, single point] | 
2 | COc1cc(OC)cc(C(=O)NC(C(=O)Nc2ccc(N3CCOCC3)cc2)C(C)C)c1 (stereo unspecified) | -12.4 |  | 
3 | Cc1ccc(/C=C/S(=O)(=O)NCCC(=O)NCc2ccc(F)cc2)cc1 |  | 14600 nM [falling, partial curve] | 
4 | COc1cccc(CN(C)C(=O)c2cccc(S(=O)(=O)N3CCN(Cc4ccccc4)CC3)c2)c1OC |  |  | 1640 nM [rising, partial curve]
5 | O=C1NCCCN1Cc1ccc(F)cc1 |  | 18400 nM [falling, partial curve] | 
6 | Cc1ccc(C(C)C)c(OCC(=O)NNC(=O)C(C(C)C)N2C(=O)c3ccccc3C2=O)c1 (stereo unspecified) |  | 14600 nM [falling, partial curve] | 
7 | O=C(N/N=C/c1ccco1)C(O)c1ccccc1 (stereo unspecified) | -37.1 | 206 nM [falling, full curve] | 164 nM [falling, full curve]
8 | CN(C(=O)c1ccc(-c2nn(C)c(=O)c3ccccc23)cc1)c1ccccc1 | 45.3 | 2310 nM [rising, partial curve] | 580 nM [rising, full curve]
9 | O=C(CSc1nncn1-c1ccccc1)Nc1ccc(N2CCOCC2)cc1 | -14.3 |  | 1300 nM [rising, full curve, poor fit]
10 | COc1ccc(CNc2nc3nc4c(c(=O)n3[nH]2)CCC4)cc1 | 35.9 |  | 16400 nM [rising, single point]
11 | CC(C(=O)c1ccc(Br)cc1)[n+]1cccc(NC(=O)c2ccccc2)c1 (stereo unspecified) | -60.1 | 2910 nM [rising, partial curve] | 3660 nM [rising, partial curve]
12 | CNc1oc(Cc2ccccc2)nc1S(=O)(=O)c1ccccc1 | 2.25 |  | 
13 | O=C(CC1SCCNC1=O)Nc1cccc(C(F)(F)F)c1 (stereo unspecified) | 1.36 |  | 
14 | Cc1ccc(N2CCN(/N=C/c3cccnc3)CC2)cc1 | 59.9 |  | 14600 nM [rising, single point]
15 | CCCCc1ccc(NC2=NCC(=O)N2CCc2ccccc2)cc1 | 18.8 | 103 nM [rising, full curve] | 
16 | CCN(Cc1ccccc1)c1ccc(/C=N/NS(=O)(=O)c2cccc([N+](=O)[O-])c2)cc1 | -23.3 | 6.51 nM [falling, full curve, poor fit] | 4.11 nM [falling, full curve, poor fit]
17 | O=P(CCO)(c1ccccc1)c1ccccc1 | 0.735 |  | 
18 | COc1ccccc1NC(=O)N1CCCC(c2nc3c(nnn3Cc3ccc(C)cc3)c(=O)[nH]2)C1 (stereo unspecified) | -31.5 | 5.8 nM [rising, full curve, poor fit] | 11600 nM [falling, partial curve]
19 | Cc1ccc(C)c(CNS(=O)(=O)c2ccc3c(c2)C(C)(C)C(=O)N3C)c1 | -34.6 |  | 10300 nM [falling, partial curve, poor fit]

Molecules shown so far that have an NH in an aromatic ring:
Row | SMILES | cell number change [%] | AC50 [1] | AC50 [2]
10 | COc1ccc(CNc2nc3nc4c(c(=O)n3[nH]2)CCC4)cc1 | 35.9 |  | 16400 nM [rising, single point]
18 | COc1ccccc1NC(=O)N1CCCC(c2nc3c(nnn3Cc3ccc(C)cc3)c(=O)[nH]2)C1 (stereo unspecified) | -31.5 | 5.8 nM [rising, full curve, poor fit] | 11600 nM [falling, partial curve]

Going on with the list:

Row | SMILES | cell number change [%] | AC50 [1] | AC50 [2]
20 | O=C(NC12CC3CC(CC(C3)C1)C2)c1cc(F)c(F)c(F)c1F | 51.4 | 29100 nM [rising, single point] | 29100 nM [rising, single point]
21 | CCOC(=O)c1c(NC(=O)/C=C/c2ccc(C)o2)sc(C)c1C | -12.6 | 259 nM [rising, full curve, poor fit] | 
22 | CC(=O)Oc1ccc(C(=O)N2c3ccccc3NC(=O)C2C)cc1 (stereo unspecified) | 38.7 |  | 29100 nM [rising, single point]
23 | N=c1c2ccccc2nnn1-c1cccc(C(F)(F)F)c1 | -32.8 | 6510 nM [falling, single point] | 6510 nM [falling, single point]
24 | CN(C)S(=O)(=O)c1ccc(N2CCOCC2)c(C(=O)NCc2ccc3c(c2)OCO3)c1 | 2.57 | 25900 nM [rising, partial curve] | 
25 | CCOc1ccc(C(=O)OCCN(CC)CC)cc1 | -53.1 | 517 nM [falling, full curve] | 164 nM [falling, full curve]
26 | CN(C)S(=O)(=O)c1ccc2c(c1)nc(CCC(=O)Nc1ccc(N3CCOCC3)cc1)n2C | -2.77 | 103 nM [falling, full curve, poor fit] | 116 nM [falling, full curve]
27 | CCCOC(=O)C1=C(C)NC2=C(C(=O)C(C(=O)OC)C(C)C2)C1c1ccc(N(CC)CC)cc1 (stereo unspecified) | -26.8 | 164 nM [falling, partial curve, poor fit] | 
28 | CC(NC(=O)C1CCCN1S(=O)(=O)c1cccc2nsnc12)c1ccccc1 (stereo unspecified) | 26.8 | 6510 nM [falling, single point] | 
29 | C=CCN1C(=O)c2ccc(C(=O)NCCc3ccc(OC)c(OC)c3)cc2C1=O | 30.2 |  | 1840 nM [rising, single point]
30 | CCOC(=O)N1CCC(NC(=O)Cn2cc3c(n2)CCCC3)CC1 | -40.1 | 2910 nM [falling, full curve] | 6510 nM [falling, partial curve, poor fit]
31 | CCOC(=O)c1c(-c2ccccc2)c2cc(OC)ccc2n1CCCN(C)C | 3.37 | 3260 nM [rising, partial curve] | 
32 | COC(=O)c1cc(C(=O)OC)cc(S(=O)(=O)Nc2ccc(Cl)c(N)c2)c1 | -35.2 |  | 1160 nM [falling, full curve, poor fit]
33 | CCOC(=O)c1c(-c2ccc(OC)cc2)cn2ccccc12 | 0.469 | 116 nM [rising, full curve, poor fit] | 
34 | NC1=NC(c2ccc(Cl)cc2)n2c(nc3ccccc32)N1 (stereo unspecified) | -72 |  | 23100 nM [falling, partial curve]
35 | Cc1c(NC(=O)C(C)OC(=O)c2ccc(Br)o2)c(=O)n(-c2ccccc2)n1C (stereo unspecified) | -5.62 |  | 580 nM [rising, single point]
36 | COc1cc(C=O)c(Cl)cc1OCC(N)=O | -44 | 6510 nM [falling, single point] | 
37 | CCN(CC)CCOC(=O)C1c2ccccc2Oc2ccccc21 | -1.76 | 2310 nM [rising, partial curve, poor fit] | 1460 nM [rising, single point]
38 | Cn1ncc(Br)c1C(=O)N1CCc2ccccc21 |  | 2310 nM [falling, partial curve] | 4110 nM [falling, single point]

Looked up above:
AC50 [1], CCN(CC)CCOC(=O)C1c2ccccc2Oc2ccccc21 is entered as 2310 nM [rising, partial curve, poor fit]
cell number change [%], COc1cc(NC(=O)CS(=O)(=O)c2ccc(C)cc2)cc(OC)c1OC is entered as 13.3

Additional records

Row | SMILES | cell number change [%] | AC50 [1] | AC50 [2]
39 | COc1ccc(NS(=O)(=O)c2ccc(Cl)s2)cn1 | -13.7 | 4110 nM [falling, full curve, poor fit] | 
40 | O=C(CSC1=NCCS1)NC(NC(=O)CSC1=NCCS1)c1ccccc1 |  | 116 nM [falling, full curve, poor fit] | 
41 | CCCCCn1c(=O)[nH]c2cc(C(=O)NCCCN3CCCCC3CC)ccc2c1=O (stereo unspecified) | 11.3 | 29100 nM [rising, single point] | 
42 | CN(C)c1ccc(CN(CC2CCCO2)C(=O)c2cccs2)cc1 (stereo unspecified) | -36.6 |  | 25900 nM [falling, partial curve]
43 | Cc1ccc(C(=O)NCCN2CCOCC2)cc1Cl | 2.01 | 366 nM [rising, full curve] | 
44 | Cc1ccc2c(c1)cc1c(=O)n(CC(=O)N(C)c3ccccc3)nc(C)n12 | 23.1 | 6510 nM [rising, single point] | 
45 | C(=N\Nc1nc2ccccc2s1)/c1ccccn1 | -27.9 | 32600 nM [falling, single point] | 
46 | O=C(NN1CCOCC1)c1ccccc1F | 19.2 |  | 
47 | O=S(=O)(c1ccc(NC(=S)NN=C(C2CC2)C2CC2)cc1)N1CCOCC1 | 34.6 | 29100 nM [rising, partial curve, poor fit] | 58 nM [rising, full curve, poor fit]
48 | Cc1c(-c2ccccc2Cl)nc2ccccc2c1C(=O)O | 1.98 | 116 nM [rising, full curve, poor fit] | 731 nM [rising, full curve]
49 | COc1cccc(NC(=O)CNC(=O)Cn2cnc3sc4c(c3c2=O)CCCC4)c1 | 18.1 |  | 
50 | Cn1cc(C(=O)c2ccc(Cl)cc2)cc1-c1nc2ccccc2n1C | -5.52 | 4.61 nM [rising, full curve, poor fit] | 
51 | CCc1ccc(NC(=O)COC(=O)CCC2CCCC2)cc1 | -7.63 | 8200 nM [falling, partial curve, poor fit] | 
52 | COC(=O)c1cccc([N+](=O)[O-])c1CN1CCCC(C(N)=O)C1 (stereo unspecified) | 11 | 731 nM [rising, single point] | 
53 | COc1ccc(N(C(=O)c2ccncc2)S(=O)(=O)c2ccc(F)cc2)cc1 | 41.9 | 23100 nM [rising, partial curve] | 29100 nM [rising, single point]
54 | NC(=O)c1cc(-c2ccccc2)nc(Oc2ccccc2)n1 | 40.3 |  | 7310 nM [rising, single point]
55 | Cn1c(=O)[nH]c(=O)c2c1nc(NC1CCCCC1)n2Cc1ccccc1 | 28 | 2910 nM [rising, full curve] | 2060 nM [rising, full curve, poor fit]
56 | CSCCC(NS(=O)(=O)c1ccccc1)C(=O)OCc1cc(=O)oc2cc(O)ccc12 (stereo unspecified) |  | 146 nM [falling, full curve, poor fit] | 580 nM [falling, single point]
